Results taken from the supplement of paper PMC4604168 (melanoma cell lines).
The other results are listed elsewhere or left out. Single values are uncertain, as repeats are few or missing.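 Cells were imaged in 1,536-well plates, and nuclei stained with an antibody against cleaved PARP were counted against all DNA-stained nuclei to give the apoptosis fraction. Screening doses were chosen to leave most cells alive, and resting and induced cleaved-PARP levels differ strongly between cell lines.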

Tested on: 501Mel
Experiment: cleaved PARP positive nuclei fraction relative to DMSO control; melanoma cells; higher = more apoptosis
Conditions: library dose: low library concentration; 72 h

SMILES | cleaved PARP positive nuclei fraction [%]
COc1ccc2c(c1)CCC1C2CCC2(C)C(NCCCCCCN3C(=O)C=CC3=O)CCC12 (stereo unspecified) + Oc1cc(-c2nc(-c3ccccc3)[nH]c2-c2ccncc2)ccc1Cl [L779450] (first compound 0.4 µM, partner dose 0.2 µM) | 108
CN(C)S(=O)(=O)c1ccc2c(c1)/C(=C/c1cc3c([nH]1)CCCC3)C(=O)N2 + O=C(O)C(=O)Nc1sc2c(c1C(=O)O)CCNC2 [TCS401] (first compound 0.4 µM, partner dose 1.66667 µM) | 98.5
COc1ccc(-c2ccc3c(N4CCOCC4)nc(N4C[C@@H](C)O[C@@H](C)C4)nc3n2)cc1CO + COc1cc(N2CCC(N3CCN(C)CC3)CC2)ccc1Nc1ncc(Cl)c(Nc2ccccc2S(=O)(=O)C(C)C)n1 [NVP-TAE684] (first compound 0.02 µM, partner dose 0.08 µM) | 176
COc1cc2c(Oc3ccc4[nH]c(C)cc4c3F)ncnc2cc1OCCCN1CCCC1 [cediranib] + Oc1cc(-c2nc(-c3ccccc3)[nH]c2-c2ccncc2)ccc1Cl [L779450] (first compound 0.4 µM, partner dose 0.2 µM) | 196
O=C(Nc1ccccc1)c1cc([N+](=O)[O-])ccc1Cl + Oc1cc(-c2nc(-c3ccccc3)[nH]c2-c2ccncc2)ccc1Cl [L779450] (first compound 2 µM, partner dose 0.2 µM) | 80.2
O=C(Nc1ccccc1)c1cc([N+](=O)[O-])ccc1Cl + CCCCCCCCCCCC1=C(O)C(=O)C=C(O)C1=O [Embelin] (first compound 2 µM, partner dose 1.2 µM) | 75.8
COc1ccc(-c2ccc3c(N4CCOCC4)nc(N4C[C@@H](C)O[C@@H](C)C4)nc3n2)cc1CO + CCCCCCCCCCCC1=C(O)C(=O)C=C(O)C1=O [Embelin] (first compound 0.02 µM, partner dose 1.2 µM) | 152
Cn1cc(/C=C2\C(=O)Nc3cccnc32)c2ccccc21 + CCCCCCCCCCCC1=C(O)C(=O)C=C(O)C1=O [Embelin] (first compound 0.4 µM, partner dose 1.2 µM) | 70.4
NCC(=O)Nc1ccc(-n2nc(C(F)(F)F)cc2-c2ccc3c(ccc4ccccc43)c2)cc1 + COc1ccc(-c2ccc3c(N4CCOCC4)nc(N4C[C@@H](C)O[C@@H](C)C4)nc3n2)cc1CO [KU0063794] (first compound 1 µM, partner dose 0.02 µM) | 528
CCN(CC)CCCCNc1ncc2cc(-c3cc(OC)cc(OC)c3)c(NC(=O)NC(C)(C)C)nc2n1 + Oc1nc(-c2ccc(C(F)(F)F)cc2)nc2c1CSCC2 [XAV939] (first compound 0.1 µM, partner dose 2 µM) | 75.8
O=C(O)c1ccc(-c2c[nH]c3ncc(-c4ccccc4)cc23)cc1C1CCCC1 + O=c1cc(-c2cccc3c2Sc2ccccc2S3)oc(N2CCOCC2)c1 [KU55933] (first compound 0.16 µM, partner dose 1 µM) | 75
CCN(CC)CCCCNc1ncc2cc(-c3cc(OC)cc(OC)c3)c(NC(=O)NC(C)(C)C)nc2n1 + O=S(=O)(c1ccccc1)N(CC(F)(F)F)c1ccc(C(O)(C(F)(F)F)C(F)(F)F)cc1 [T0901317] (first compound 0.1 µM, partner dose 1.4 µM) | 87.5
COc1ccc2c(c1)CCC1C2CCC2(C)C(NCCCCCCN3C(=O)C=CC3=O)CCC12 (stereo unspecified) + COc1ccc(-c2ccc3c(N4CCOCC4)nc(N4C[C@@H](C)O[C@@H](C)C4)nc3n2)cc1CO [KU0063794] (first compound 0.4 µM, partner dose 0.02 µM) | 89.7
COc1cc2c(Oc3ccc4[nH]c(C)cc4c3F)ncnc2cc1OCCCN1CCCC1 [cediranib] + Oc1nc(-c2ccc(C(F)(F)F)cc2)nc2c1CSCC2 [XAV939] (first compound 0.4 µM, partner dose 2 µM) | 148
COc1ccc(-c2ccc3c(N4CCOCC4)nc(N4C[C@@H](C)O[C@@H](C)C4)nc3n2)cc1CO + COc1ccc(COc2ccc(Cc3cnc(N)nc3N)cc2OC)cc1 [GW2580] (first compound 0.02 µM, partner dose 1 µM) | 68.1
O=C(Nc1ccccc1)c1cc([N+](=O)[O-])ccc1Cl + c1cc(-c2cnn3cc(-c4ccc(OCCN5CCCCC5)cc4)cnc23)ccn1 [Dorsomorphin] (first compound 2 µM, partner dose 0.4 µM) | 59
NCC(=O)Nc1ccc(-n2nc(C(F)(F)F)cc2-c2ccc3c(ccc4ccccc43)c2)cc1 + O=c1cc(-c2cccc3c2Sc2ccccc2S3)oc(N2CCOCC2)c1 [KU55933] (first compound 1 µM, partner dose 1 µM) | 579
COC(=O)c1sccc1S(=O)(=O)Nc1ccc(Nc2ccccc2)cc1OC + COc1ccc(COc2ccc(Cc3cnc(N)nc3N)cc2OC)cc1 [GW2580] (first compound 1 µM, partner dose 1 µM) | 59.8

SMILES | cleaved PARP positive nuclei fraction [%]
NCC(=O)Nc1ccc(-n2nc(C(F)(F)F)cc2-c2ccc3c(ccc4ccccc43)c2)cc1 + Oc1nc(-c2ccc(C(F)(F)F)cc2)nc2c1CSCC2 [XAV939] (first compound 1 µM, partner dose 2 µM) | 543
NCC(=O)Nc1ccc(-n2nc(C(F)(F)F)cc2-c2ccc3c(ccc4ccccc43)c2)cc1 + N#Cc1c(O)c2c(-c3ccc(-c4ccccc4O)cc3)csc2[nH]c1=O [A769662] (first compound 1 µM, partner dose 2 µM) | 402
CCc1ccc(CCOc2ccc(CC3SC(=O)NC3=O)cc2)nc1 (stereo unspecified) [pioglitazone] + COc1ccc2c(c1)CCC1C2CCC2(C)C(NCCCCCCN3C(=O)C=CC3=O)CCC12 [U73122] (first compound 2 µM, partner dose 0.4 µM) | 83.5
COc1cc(N2CCC(N3CCN(C)CC3)CC2)ccc1Nc1ncc(Cl)c(Nc2ccccc2S(=O)(=O)C(C)C)n1 + CCCCCCCCCCCC1=C(O)C(=O)C=C(O)C1=O [Embelin] (first compound 0.08 µM, partner dose 1.2 µM) | 181
N#Cc1c(O)c2c(-c3ccc(-c4ccccc4O)cc3)csc2[nH]c1=O + COc1ccc(-c2ccc3c(N4CCOCC4)nc(N4C[C@@H](C)O[C@@H](C)C4)nc3n2)cc1CO [KU0063794] (first compound 2 µM, partner dose 0.02 µM) | 148
NCC(=O)Nc1ccc(-n2nc(C(F)(F)F)cc2-c2ccc3c(ccc4ccccc43)c2)cc1 + O=S(=O)(c1ccccc1)N(CC(F)(F)F)c1ccc(C(O)(C(F)(F)F)C(F)(F)F)cc1 [T0901317] (first compound 1 µM, partner dose 1.4 µM) | 697
O=C1NC(=O)/C(=C/c2ccc(-c3ccc(F)cc3O)o2)S1 + CC(C)CCN1c2nc(Nc3cc(F)c(O)c(F)c3)ncc2N(C)C(=O)C1C [BID1870] (first compound 1 µM, partner dose 0.2 µM) | 97.7
NCC(=O)Nc1ccc(-n2nc(C(F)(F)F)cc2-c2ccc3c(ccc4ccccc43)c2)cc1 + O=C(Nc1ccccc1)c1cc([N+](=O)[O-])ccc1Cl [GW9662] (first compound 1 µM, partner dose 2 µM) | 455
O=S(=O)(c1ccccc1)N(CC(F)(F)F)c1ccc(C(O)(C(F)(F)F)C(F)(F)F)cc1 + c1cc(-c2cnn3cc(-c4ccc(OCCN5CCCCC5)cc4)cnc23)ccn1 [Dorsomorphin] (first compound 1.4 µM, partner dose 0.4 µM) | 100
COc1ccc(COc2ccc(Cc3cnc(N)nc3N)cc2OC)cc1 + Cn1cc(/C=C2\C(=O)Nc3cccnc32)c2ccccc21 [GW441756] (first compound 1 µM, partner dose 0.4 µM) | 78.2
Oc1cc(-c2nc(-c3ccccc3)[nH]c2-c2ccncc2)ccc1Cl + c1cc(-c2cnn3cc(-c4ccc(OCCN5CCCCC5)cc4)cnc23)ccn1 [Dorsomorphin] (first compound 0.2 µM, partner dose 0.4 µM) | 163
COc1ccc2c(c1)CCC1C2CCC2(C)C(NCCCCCCN3C(=O)C=CC3=O)CCC12 (stereo unspecified) + CC(C)CCN1c2nc(Nc3cc(F)c(O)c(F)c3)ncc2N(C)C(=O)C1C [BID1870] (first compound 0.4 µM, partner dose 0.2 µM) | 155
O=C1NC(=O)/C(=C/c2ccc(-c3ccc(F)cc3O)o2)S1 + c1cc(-c2cnn3cc(-c4ccc(OCCN5CCCCC5)cc4)cnc23)ccn1 [Dorsomorphin] (first compound 1 µM, partner dose 0.4 µM) | 91.6
O=C(O)C(=O)Nc1sc2c(c1C(=O)O)CCNC2 + Oc1nc(-c2ccc(C(F)(F)F)cc2)nc2c1CSCC2 [XAV939] (first compound 1.66667 µM, partner dose 2 µM) | 140
Oc1cc(-c2nc(-c3ccccc3)[nH]c2-c2ccncc2)ccc1Cl + Cc1cc([N+](=O)[O-])ccc1NS(=O)(=O)c1cc(Cl)ccc1Cl [FH535] (first compound 0.2 µM, partner dose 1 µM) | 259
CN(C)S(=O)(=O)c1ccc2c(c1)/C(=C/c1cc3c([nH]1)CCCC3)C(=O)N2 + O=S(=O)(c1ccccc1)N(CC(F)(F)F)c1ccc(C(O)(C(F)(F)F)C(F)(F)F)cc1 [T0901317] (first compound 0.4 µM, partner dose 1.4 µM) | 190
N#Cc1c(O)c2c(-c3ccc(-c4ccccc4O)cc3)csc2[nH]c1=O + O=C(O)C(=O)Nc1sc2c(c1C(=O)O)CCNC2 [TCS401] (first compound 2 µM, partner dose 1.66667 µM) | 68
O=C1NC(=O)/C(=C/c2ccc(-c3ccc(F)cc3O)o2)S1 + Oc1nc(-c2ccc(C(F)(F)F)cc2)nc2c1CSCC2 [XAV939] (first compound 1 µM, partner dose 2 µM) | 77.9

Looked up above.
O=C(O)C(=O)Nc1sc2c(c1C(=O)O)CCNC2 + Oc1nc(-c2ccc(C(F)(F)F)cc2)nc2c1CSCC2 [XAV939] (first compound 1.66667 µM, partner dose 2 µM) | cleaved PARP positive nuclei fraction [%]: 140
O=S(=O)(c1ccccc1)N(CC(F)(F)F)c1ccc(C(O)(C(F)(F)F)C(F)(F)F)cc1 + c1cc(-c2cnn3cc(-c4ccc(OCCN5CCCCC5)cc4)cnc23)ccn1 [Dorsomorphin] (first compound 1.4 µM, partner dose 0.4 µM) | cleaved PARP positive nuclei fraction [%]: 100
